For some assays here: At least one read-out could not be matched to a standard name with certainty. Some results were stated once for a whole list of compounds, not compound by compound.
Tests used:
[1] = test system: women with menopausal symptoms including hot flashes; settings: patient three, at least two-week trial; clonidine up to 0.4 mg, gabapentin up to 1800 mg, venflaxamine up to 300 mg
[2] = test system: women with dramatic vasomotor hot flashes and sleep disruption; assay: Clinical study of six women with vasomotor hot flashes and sleep disruption, symptoms graded 0-4; assay type: in vivo; settings: for Hot Flash Severity: grade 0-4 (duration), average of six women; for Hot Flash Severity / Falling Asleep / Sweating / Wakings: up to four weeks; for Hot Flash Severity / Hot Flash Frequency / Sweating: untreated = 3; for Hot Flash Frequency / Falling Asleep / Sweating / Wakings: grade 0-4, average of six women; for Hot Flash Frequency: end of treatment period (up to four weeks), ropinirole 4 mg, tizanidine 4 mg, clonidine 0.1 mg, rotigotine 1 mg, pramipexole 1.5 mg, chlorpromazine 25 mg, haloperidol 1 mg, venlafaxine 75 mg, paroxetine 20 mg, gabapentin 300 mg, pregabilin 50 mg; for Falling Asleep: untreated = 2; for Wakings: untreated = 4
Procedure: Patients were on each regimen at the doses cited for up to four weeks.
Symptoms were evaluated on a scale from 0 to 4, with 0 being not affected, 1 being mild, 2 being moderate, 3 being severe, and 4 being a very severe expression of either vasomotor symptom frequency, severity, sweating, falling asleep and waking during the night for each patient and evaluated at the end of the treatment period. The findings reported are based on an average of the reported symptoms of the six women studied.
Specifically, regarding hot flash frequency, evaluation was based upon the number of hot flashes per day. The frequency of hot flashes was graded on a scale of 0-4, with 0 as none detected, 1 as 1-4/day (mild), 2 as 5-8/day (moderate), 3 as 9-12/day (severe), and 4 as more than 12/day (very severe).
The severity of the hot flashes, reflecting hot flash duration, was also graded on a scale of 0-4, with 0 being not detected, 1 being mild (less than 1 minute), 2 moderate (1-2 minutes), 3 severe (2-3 minutes), and 4 very severe (greater than 4 minutes). This evaluation reflects the duration and intensity as rated by the individual.
The sweating response was graded on a scale of 0-4 as well, with 0 being not detected, 1 being mild (minimally moist skin), 2 moderate (moisture of the skin), 3 severe (noticeable perspiration, hair, ears, neck, chest), and 4 very severe (soaking sweat).
Falling asleep was also graded on a scale of 0-4, with 0 being no issue (less than 15 minutes), 1 being mild (15-20 minutes), 2 moderate (20-40 minutes), 3 severe (40-60 minutes), and 4 very severe (greater than 60 minutes).
Wakings were graded on a scale of 0-4 as well, with 0 being not detected, 1 being mild (1-5 wakings/night), 2 moderate (5-10 wakings/night), 3 severe (10-15 wakings/night), and 4 very severe (greater than 15 wakings/night).
The D2 receptor family (D2, D3 or D4) agonists ropinirole, rotigotine and pramipexole were examined, and contrasted with D2 receptor family antagonists chlorpromazine or haloperidol. Ropinirole and pramipexole were evaluated alone and with either alpha-2-adrenergic agonist tizanidine or clonidine.
Venlafaxine, paroxetine, gabapentin, and pregabilin were also evaluated in comparison with tizanidine.

NCC1(CC(=O)O)CCCCC1 [Gabapentin, gabapentin]
reduction of hot flashes [1]: ≤ 25% | Hot Flash Severity [2]: 2 (2 moderate (1-2 minutes)) | Hot Flash Frequency [2]: 2 (2 as 5-8/day (moderate)) | Falling Asleep [2]: 2 (2 moderate (20-40 minutes)) | Sweating [2]: 3 | Wakings [2]: 2 (2 moderate (5-10 wakings/night))

CC(C)C[C@H](CN)CC(=O)O [Pregabilin, pregabalin]
Hot Flash Severity [2]: 2 (2 moderate (1-2 minutes)) | Hot Flash Frequency [2]: 2 (2 as 5-8/day (moderate)) | Falling Asleep [2]: 2 (2 moderate (20-40 minutes)) | Sweating [2]: 3 | Wakings [2]: 1 (1 being mild (1-5 wakings/night))

COc1ccc(C(CN(C)C)C2(O)CCCCC2)cc1 (centres unmarked) [Venlafaxine]
reduction of hot flashes [1]: ≤ 25% | Hot Flash Severity [2]: 2 (2 moderate (1-2 minutes)) | Hot Flash Frequency [2]: 2 (2 as 5-8/day (moderate)) | Falling Asleep [2]: 2 (2 moderate (20-40 minutes)) | Sweating [2]: 3 | Wakings [2]: 3 (3 severe (10-15 wakings/night))
